Patent US20150299660A1, “DIFFERENTIATION OF HUMAN FIBROBLAST CELLS” (International Stem Cell Corporation, priority 2012, published 2015)
At least one compound was matched to its structure with a doubt left.

What was measured:
[1] = system: murine embryonic fibroblasts; experiment: Induction of adipogenesis in murine embryonic fibroblasts; assay type: cell-based
[2] = system: chicken embryonic fibroblasts; experiment: Induction of adipogenesis in chicken embryonic fibroblasts; assay type: cell-based
[3] = Shelf-life on storage at −20° C.; assay type: physicochemical; details: powdered form

In the case of `CN(CCOc1ccc(CC2SC(=O)NC2=O)cc1)c1ccccn1` (stereo not drawn) [Rosiglitazone], the induction of adipogenesis [1] is reported as “worked” and the induction of adipogenesis [2] is reported as “worked”.

Molecule `Cc1c(C)c2c(c(C)c1O)CCC(C)(COc1ccc(CC3SC(=O)NC3=O)cc1)O2` (stereo not drawn) [Troglitazone] has a shelf-life as reagent [3] of 3 months.
